# Experimental data as given in the supplement of paper PMC8728848.
# The other results are listed elsewhere or left out.
# Columns and labels:
# Experiment in all cases: glycan array binding signal (z-score within array); higher = stronger binding
# Conditions in all cases: glycan notation: IUPAC condensed, linker removed; mutation: D21K
# [1] = target: Gal(b1-3)GlcNAc(b1-2)Man(a1-3)[Gal(b1-3)GlcNAc(b1-2)Man(a1-6)]Man(b1-4)GlcNAc(b1-4)GlcNAc
# Summary of the method: (§1)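 The binding signal is a Z-score computed within each array and averaged over linkers. Arrays of the same protein sequence at different concentrations or buffers were also averaged together. Data originate from 3228 arrays in the Consortium for Functional Glycomics database, kept only where the protein sequence was available.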
# [2] = target: Gal(b1-3)GlcNAc(b1-2)Man(a1-3)[Gal(b1-3)GlcNAc(b1-2)Man(a1-6)]Man(b1-4)GlcNAc(b1-4)[Fuc(a1-6)]GlcNAc
# Summary of the method: as §1
# [3] = target: Gal(b1-3)GlcNAc(b1-2)Man(a1-3)[GlcNAc(b1-4)][Gal(b1-3)GlcNAc(b1-2)Man(a1-6)]Man(b1-4)GlcNAc(b1-4)GlcNAc
# Summary of the method: as §1
# [4] = target: Gal(b1-3)GlcNAc(b1-2)[Gal(b1-3)GlcNAc(b1-6)]Man(a1-6)[Gal(b1-3)GlcNAc(b1-2)Man(a1-3)]Man(b1-4)GlcNAc(b1-4)GlcNAc
# Summary of the method: as §1
# [5] = target: Gal(b1-3)GlcNAc(b1-3)Gal(b1-3)GlcNAc
# Summary of the method: as §1
# [6] = target: Gal(b1-3)GlcNAc(b1-3)Gal(b1-4)Glc
# Summary of the method: as §1
# [7] = target: Gal(b1-3)GlcNAc(b1-3)Gal(b1-4)GlcNAc
# Summary of the method: as §1
# [8] = target: Gal(b1-3)GlcNAc(b1-3)Gal(b1-4)GlcNAc(b1-2)Man(a1-3)[Gal(b1-3)GlcNAc(b1-3)Gal(b1-4)GlcNAc(b1-2)Man(a1-6)]Man(b1-4)GlcNAc(b1-4)GlcNAc
# Summary of the method: as §1
# [9] = target: Gal(b1-3)GlcNAc(b1-3)Gal(b1-4)GlcNAc(b1-2)[Gal(b1-3)GlcNAc(b1-3)Gal(b1-4)GlcNAc(b1-6)]Man(a1-6)[Gal(b1-3)GlcNAc(b1-3)Gal(b1-4)GlcNAc(b1-2)Man(a1-3)]Man(b1-4)GlcNAc(b1-4)[Fuc(a1-6)]GlcNAc
# Summary of the method: as §1
# [10] = target: Gal(b1-3)GlcNAc(b1-3)Gal(b1-4)GlcNAc(b1-3)Gal(b1-4)GlcNAc(b1-2)[Gal(b1-3)GlcNAc(b1-3)Gal(b1-4)GlcNAc(b1-3)Gal(b1-4)GlcNAc(b1-6)]Man(a1-6)[Gal(b1-3)GlcNAc(b1-3)Gal(b1-4)GlcNAc(b1-3)Gal(b1-4)GlcNAc(b1-2)Man(a1-3)]Man(b1-4)GlcNAc(b1-4)[Fuc(a1-6)]GlcNAc
# Summary of the method: as §1
# [11] = target: Gal(b1-3)GlcNAc(b1-3)Gal(b1-4)GlcNAc(b1-6)[Gal(b1-3)GlcNAc(b1-3)]Gal(b1-4)Glc
# Summary of the method: as §1
# [12] = target: Gal(b1-3)GlcNAc(b1-3)Gal(b1-4)[Fuc(a1-3)]GlcNAc
# Summary of the method: as §1
# [13] = target: Gal(b1-3)GlcNAc(b1-3)Gal(b1-4)[Fuc(a1-3)]GlcNAc(b1-6)[Gal(b1-3)GlcNAc(b1-3)]Gal(b1-4)Glc
# Summary of the method: as §1
# [14] = target: Gal(b1-3)GlcNAc(b1-3)GalNAc
# Summary of the method: as §1
# [15] = target: Gal(b1-3)GlcNAc(b1-6)Gal(b1-4)GlcNAc
# Summary of the method: as §1
# [16] = target: Gal(b1-3)GlcNAc(b1-6)GalNAc
# Summary of the method: as §1
# [17] = target: Gal(b1-3)GlcNAc(b1-6)[Gal(b1-3)]GalNAc
# Summary of the method: as §1
# [18] = target: Gal(b1-3)GlcNAc6S
# Summary of the method: as §1
# [19] = target: Gal(b1-3)[Fuc(a1-4)]GlcNAc
# Summary of the method: as §1
# [20] = target: Gal(b1-3)[Fuc(a1-4)]GlcNAc(b1-2)Man
# Summary of the method: as §1
# [21] = target: Gal(b1-3)[Fuc(a1-4)]GlcNAc(b1-2)Man(a1-3)[Gal(b1-3)[Fuc(a1-4)]GlcNAc(b1-2)Man(a1-6)]Man(b1-4)GlcNAc(b1-4)[Fuc(a1-6)]GlcNAc
# Summary of the method: as §1
# [22] = target: Gal(b1-3)[Fuc(a1-4)]GlcNAc(b1-3)Gal(b1-3)[Fuc(a1-4)]GlcNAc
# Summary of the method: as §1
# [23] = target: Gal(b1-3)[Fuc(a1-4)]GlcNAc(b1-3)Gal(b1-4)[Fuc(a1-3)]GlcNAc
# Summary of the method: as §1
# [24] = target: Gal(b1-3)[Fuc(a1-4)]GlcNAc(b1-6)GalNAc
# Summary of the method: as §1
# [25] = target: Gal(b1-3)[GlcNAc(b1-6)]GalNAc
# Summary of the method: as §1
# [26] = target: Gal(b1-3)[Neu5Ac(a2-6)]GalNAc
# Summary of the method: as §1
# [27] = target: Gal(b1-3)[Neu5Ac(a2-6)]GlcNAc(b1-4)Gal(b1-4)Glc
# Summary of the method: as §1
# [28] = target: Gal(b1-3)[Neu5Ac(b2-6)]GalNAc
# Summary of the method: as §1
# [29] = target: Gal(b1-4)Gal
# Summary of the method: as §1
# [30] = target: Gal(b1-4)GalNAc(a1-3)[Fuc(a1-2)]Gal(b1-4)GlcNAc
# Summary of the method: as §1
# [31] = target: Gal(b1-4)GalNAc(b1-3)[Fuc(a1-2)]Gal(b1-4)GlcNAc
# Summary of the method: as §1
# [32] = target: Gal(b1-4)Glc
# Summary of the method: as §1
# [33] = target: Gal(b1-4)Glc6S
# Summary of the method: as §1
# [34] = target: Gal(b1-4)GlcNAc
# Summary of the method: as §1
# [35] = target: Gal(b1-4)GlcNAc(a1-6)Gal(b1-4)GlcNAc
# Summary of the method: as §1
# [36] = target: Gal(b1-4)GlcNAc(b1-2)Man
# Summary of the method: as §1
# [37] = target: Gal(b1-4)GlcNAc(b1-2)Man(a1-3)Man(b1-4)GlcNAc(b1-4)GlcNAc
# Summary of the method: as §1
# [38] = target: Gal(b1-4)GlcNAc(b1-2)Man(a1-3)[Gal(b1-4)GlcNAc(b1-2)Man(a1-6)]Man(b1-4)GlcNAc(b1-4)GlcNAc
# Summary of the method: as §1
# [39] = target: Gal(b1-4)GlcNAc(b1-2)Man(a1-3)[Gal(b1-4)GlcNAc(b1-2)Man(a1-6)]Man(b1-4)GlcNAc(b1-4)[Fuc(a1-6)]GlcNAc
# Summary of the method: as §1
# [40] = target: Gal(b1-4)GlcNAc(b1-2)Man(a1-3)[Gal(b1-4)GlcNAc(b1-2)Man(a1-6)][Gal(b1-4)GlcNAc(b1-4)]Man(b1-4)GlcNAc(b1-4)[Fuc(a1-6)]GlcNAc
# Summary of the method: as §1
# [41] = target: Gal(b1-4)GlcNAc(b1-2)Man(a1-3)[Gal(b1-4)GlcNAc(b1-2)Man(a1-6)][GlcNAc(b1-4)]Man(b1-4)GlcNAc(b1-4)[Fuc(a1-6)]GlcNAc
# Summary of the method: as §1
# [42] = target: Gal(b1-4)GlcNAc(b1-2)Man(a1-3)[GlcNAc(b1-2)Man(a1-6)]Man(b1-4)GlcNAc(b1-4)GlcNAc
# Summary of the method: as §1
# [43] = target: Gal(b1-4)GlcNAc(b1-2)Man(a1-3)[GlcNAc(b1-4)][Gal(b1-4)GlcNAc(b1-2)Man(a1-6)]Man(b1-4)GlcNAc(b1-4)GlcNAc
# Summary of the method: as §1
# [44] = target: Gal(b1-4)GlcNAc(b1-2)Man(a1-3)[Man(a1-6)]Man(b1-4)GlcNAc(b1-4)GlcNAc
# Summary of the method: as §1
# [45] = target: Gal(b1-4)GlcNAc(b1-2)Man(a1-6)Man(b1-4)GlcNAc(b1-4)GlcNAc
# Summary of the method: as §1
# [46] = target: Gal(b1-4)GlcNAc(b1-2)Man(a1-6)[GlcNAc(b1-2)Man(a1-3)]Man(b1-4)GlcNAc(b1-4)GlcNAc
# Summary of the method: as §1
# [47] = target: Gal(b1-4)GlcNAc(b1-2)Man(a1-6)[Man(a1-3)]Man(b1-4)GlcNAc(b1-4)GlcNAc
# Summary of the method: as §1
# [48] = target: Gal(b1-4)GlcNAc(b1-2)[Gal(b1-4)GlcNAc(b1-4)]Man(a1-3)[Gal(b1-4)GlcNAc(b1-2)Man(a1-6)]Man(b1-4)GlcNAc(b1-4)GlcNAc
# Summary of the method: as §1
# [49] = target: Gal(b1-4)GlcNAc(b1-2)[Gal(b1-4)GlcNAc(b1-4)]Man(a1-3)[Gal(b1-4)GlcNAc(b1-2)[Gal(b1-4)GlcNAc(b1-6)]Man(a1-6)]Man(b1-4)GlcNAc(b1-4)GlcNAc
# Summary of the method: as §1
# [50] = target: Gal(b1-4)GlcNAc(b1-2)[Gal(b1-4)GlcNAc(b1-4)]Man(a1-3)[GlcNAc(b1-4)][Gal(b1-4)GlcNAc(b1-2)Man(a1-6)]Man(b1-4)GlcNAc(b1-4)GlcNAc
# Summary of the method: as §1
# [51] = target: Gal(b1-4)GlcNAc(b1-2)[Gal(b1-4)GlcNAc(b1-4)]Man(a1-3)[GlcNAc(b1-4)][Gal(b1-4)GlcNAc(b1-2)[Gal(b1-4)GlcNAc(b1-6)]Man(a1-6)]Man(b1-4)GlcNAc(b1-4)GlcNAc
# Summary of the method: as §1
# [52] = target: Gal(b1-4)GlcNAc(b1-2)[Gal(b1-4)GlcNAc(b1-6)]Man(a1-6)[Gal(b1-4)GlcNAc(b1-2)Man(a1-3)]Man(b1-4)GlcNAc(b1-4)GlcNAc
# Summary of the method: as §1
binder,measurement,setting,value
KILRGVCKKIMRTFLRRISKKILTGKK [C7A (Sus scrofa)],glycan array binding signal (z-score),[1],-0.232
same,glycan array binding signal (z-score),[2],0.303
same,glycan array binding signal (z-score),[3],0.213
same,glycan array binding signal (z-score),[4],-0.557
same,glycan array binding signal (z-score),[5],-0.8
same,glycan array binding signal (z-score),[6],-0.894
same,glycan array binding signal (z-score),[7],-1.13
same,glycan array binding signal (z-score),[8],-2.32
same,glycan array binding signal (z-score),[9],1.29
same,glycan array binding signal (z-score),[10],0.352
same,glycan array binding signal (z-score),[11],0.463
same,glycan array binding signal (z-score),[12],0.37
same,glycan array binding signal (z-score),[13],0.301
same,glycan array binding signal (z-score),[14],-0.918
same,glycan array binding signal (z-score),[15],0.668
same,glycan array binding signal (z-score),[16],-1.14
same,glycan array binding signal (z-score),[17],-0.196
same,glycan array binding signal (z-score),[18],1.73
same,glycan array binding signal (z-score),[19],-0.073
same,glycan array binding signal (z-score),[20],0.249
same,glycan array binding signal (z-score),[21],-1.63
same,glycan array binding signal (z-score),[22],-0.712
same,glycan array binding signal (z-score),[23],-1.26
same,glycan array binding signal (z-score),[24],-0.177
same,glycan array binding signal (z-score),[25],-0.867
same,glycan array binding signal (z-score),[26],-0.301
same,glycan array binding signal (z-score),[27],0.817
same,glycan array binding signal (z-score),[28],-0.443
same,glycan array binding signal (z-score),[29],-0.595
same,glycan array binding signal (z-score),[30],-0.837
same,glycan array binding signal (z-score),[31],-1.14
same,glycan array binding signal (z-score),[32],-0.133
same,glycan array binding signal (z-score),[33],0.318
same,glycan array binding signal (z-score),[34],-0.446
same,glycan array binding signal (z-score),[35],0.025
same,glycan array binding signal (z-score),[36],-0.419
same,glycan array binding signal (z-score),[37],1.01
same,glycan array binding signal (z-score),[38],0.219
same,glycan array binding signal (z-score),[39],0.734
same,glycan array binding signal (z-score),[40],0.292
same,glycan array binding signal (z-score),[41],-0.177
same,glycan array binding signal (z-score),[42],-1.17
same,glycan array binding signal (z-score),[43],-0.5
same,glycan array binding signal (z-score),[44],1.46
same,glycan array binding signal (z-score),[45],-0.654
same,glycan array binding signal (z-score),[46],-1.14
same,glycan array binding signal (z-score),[47],-0.77
same,glycan array binding signal (z-score),[48],-0.884
same,glycan array binding signal (z-score),[49],-1.9
same,glycan array binding signal (z-score),[50],-0.102
same,glycan array binding signal (z-score),[51],0.687
same,glycan array binding signal (z-score),[52],0.256

# Shown as tab-separated lines: part of the list above
binder	measurement	setting	value
KILRGVCKKIMRTFLRRISKKILTGKK [C7A (Sus scrofa)]	glycan array binding signal (z-score)	[39]	0.734
same	glycan array binding signal (z-score)	[40]	0.292
same	glycan array binding signal (z-score)	[41]	-0.177
